Where a SMILES comes first, the peptide text is derived from it. Bridges are numbered along the chain shown (N, C = ends). The star is where a group is joined. Palmitoyl = CCCCCCCCCCCCCCCC(=O)*
Key:
Assay type in all cases: cell-based
[1] = test system: human cervical adenocarcinoma cell line (HeLa S3); assay: MTT assay; conditions: selectivity index
Protocol: To assess the cytotoxicity of the test lipopeptides (IC50), the classic MTT assay on 96-well polystyrene plates was performed for human keratinocytes (HaCaT) and human cervical adenocarcinoma cell line (HeLa S3) acquired from the ATCC. The assay utilizes colorimetric determination of the cell metabolic activity and the color intensity reflects the number of live cells that can be measured spectrophotometrically. The cell line was cultured in a Dulbecco’s modified Eagle Medium (Invitrogen) supplemented with 10% fetal bovine serum (v/v), 100 units/mL of penicillin, 100 μg/mL of streptomycin, and 2 mM l-glutamine and was stored at 37 °C in a humidified 5% CO2 incubator. Briefly, a day after plating of 500 cells per well, a series of concentrations (0.1–200 μg/mL) of the test compounds were applied. DMSO was added to the control cells at a final concentration of 1.0% (v/v), which was related to the maximal concentration of the solvent compounds used in the experiment. After 24 h of incubation with the lipopeptides at 37 °C in a humidified 5% CO2 incubator, a medium containing 1 mg/mL of MTT (3-(4,5-dimethylthiazol-2-yl)-2,5-diphenyltetrazolium bromide) was added to the wells up to a final concentration of 0.5 mg/mL. Subsequently, the plates were incubated at 37 °C for 4 h. Then, the medium was removed by suction, and the formazan product was solubilized with DMSO. The background absorbance at 630 nm was subtracted from that at 570 nm for each well (Epoch, BioTek Instruments, Winooski, VT, USA). Six replicates were conducted for each concentration. All experiments were repeated at least twice and the resulting IC50 values were calculated with a GraFit 7 software (v. 7.0, Erithacus, Berkley, CA, USA).

[2] = test system: Candida albicans ATCC 10231; conditions: for SI = IC50HaCaT/MIC, C. albicans: selectivity index HaCaT (right value); for SI = HC50/MIC, C. albicans: selectivity index hRBCs (left value)
Protocol: (§1) The Staphylococcus aureus ATCC 25923, Staphylococcus epidermidis ATCC 14990, Escherichia coli ATCC 25922, Pseudomonas aeruginosa ATCC 9027, Candida albicans ATCC 10231, Candida glabrata ATCC 15126, Candida lipolytica PCM 2680-FY, and Candida tropicalis PCM 2709-FY strains were acquired from the Polish Collection of Microorganisms (PCM, Polish Academy of Sciences, Wrocław, Poland) and from the American Type Culture Collection (ATCC). All the strains were stored at −80 °C in Roti-Store cryo vials and before the tests were transferred into fresh Mueller–Hinton broth (MHB, Biocorp, Warsaw, Poland) for bacteria or RPMI-1640 (Sigma-Aldrich, Steinheim, Germany) for fungi and incubated for 24 h at 37 °C. Then, the cultures were seeded on Mueller–Hinton agar (BioMaxima, Lublin, Poland) or Sabouraud dextrose agar (SDA, BioMaxima, Lublin, Poland) plates, respectively, and incubated as just mentioned. These agar cultures were used for further microbiological assays. Cell densities for all assays were adjusted spectrophotometrically (Multiskan GO Microplate Spectrophotometer, Thermo Fisher Scientific, Vantaa, Finland) at 600 and 660 nm for bacteria and fungi, respectively.
(§2) The MICs were determined by broth microdilution method according to the Clinical and Laboratory Standard Institute guidelines For this purpose, initial inoculums of bacteria (5 × 10^5 CFU/mL) in MHB and yeasts (2 × 10^3 CFU/mL) in RPMI-1640 with 2% D-glucose were exposed to the ranging concentration of lipopeptides (0.5–256 μg/mL) and incubated at 37 °C for 18 h and 24 h, respectively. The experiments were conducted on 96-well microtiter polystyrene plates. The growth was assessed visually after incubation and the MIC was assumed as the lowest peptide concentration at which a noticeable growth of microorganisms was inhibited. All experiments were conducted in triplicate.

[3] = test system: Candida glabrata ATCC 15126; conditions: for SI = IC50HaCaT/MIC, C. glabrata: selectivity index HaCaT (right value); for SI = HC50/MIC, C. glabrata: selectivity index hRBCs (left value)
Protocol: as §1, §2

[4] = test system: Candida lipolytica PCM 2680-FY; conditions: for SI = IC50HaCaT/MIC, C. lipolytica: selectivity index HaCaT (right value); for SI = HC50/MIC, C. lipolytica: selectivity index hRBCs (left value)
Protocol: as §1, §2

[5] = test system: Candida tropicalis PCM 2709-FY; conditions: for SI = IC50HaCaT/MIC, C. tropicalis: selectivity index HaCaT (right value); for SI = HC50/MIC, C. tropicalis: selectivity index hRBCs (left value)
Protocol: as §1, §2

[6] = test system: Escherichia coli ATCC 25922; conditions: for SI = IC50HaCaT/MIC, E. coli: selectivity index HaCaT (right value); for SI = HC50/MIC, E. coli: selectivity index hRBCs (left value)
Protocol: as §1, §2

[7] = test system: Pseudomonas aeruginosa ATCC 9027; conditions: for SI = IC50HaCaT/MIC, P. aeruginosa: selectivity index HaCaT (right value); for SI = HC50/MIC, P. aeruginosa: selectivity index hRBCs (left value)
Protocol: as §1, §2

[8] = test system: Staphylococcus epidermidis ATCC 14990; conditions: for SI = IC50HaCaT/MIC, S. epidermidis: selectivity index HaCaT (right value); for SI = HC50/MIC, S. epidermidis: selectivity index hRBCs (left value)
Protocol: as §1, §2

## CCCCCCCCCCCCCCCC(=O)N[C@H]1CSSC[C@@H](C(N)=O)NC(=O)[C@H](CCCCN)NC(=O)[C@H](CCCCN)NC(=O)[C@H](CCCCN)NC1=O [C1, C16-CKKKC-NH2] (Palmitoyl-CKKKC-NH2; disulfide 1-5)
[1]
  SI (IC50 HaCaT/ IC50 HeLa): 0.9

## CCCCCCCCCCCCCCCC(=O)N[C@H]1CSSC[C@@H](C(N)=O)NC(=O)[C@H](CCCCN)NC(=O)[C@H](CCCCN)NC(=O)[C@H](CCCCN)NC(=O)[C@H](CCCCN)NC1=O [C2, C16-CKKKKC-NH2] (Palmitoyl-CKKKKC-NH2; disulfide 1-6)
[2]
  SI = IC50HaCaT/MIC, C. albicans: 6.73
  SI = HC50/MIC, C. albicans: 7.65
[3]
  SI = IC50HaCaT/MIC, C. glabrata: 6.73
  SI = HC50/MIC, C. glabrata: 7.65
[4]
  SI = IC50HaCaT/MIC, C. lipolytica: 13.45
  SI = HC50/MIC, C. lipolytica: 15.30
[5]
  SI = IC50HaCaT/MIC, C. tropicalis: 13.45
  SI = HC50/MIC, C. tropicalis: 15.30
[6]
  SI = IC50HaCaT/MIC, E. coli: 0.42
  SI = HC50/MIC, E. coli: 0.48
[7]
  SI = IC50HaCaT/MIC, P. aeruginosa: 0.84
  SI = HC50/MIC, P. aeruginosa: 0.96
[8]
  SI = IC50HaCaT/MIC, S. epidermidis: 3.36
  SI = HC50/MIC, S. epidermidis: 3.83
[1]
  SI (IC50 HaCaT/ IC50 HeLa): 1.5

## CCCCCCCCCCCCCCCC(=O)N[C@H]1CSSC[C@@H](C(N)=O)NC(=O)[C@H](CCCCN)NC(=O)[C@H](CCCCN)NC(=O)[C@H](CCCCN)NC(=O)[C@H](CCCNC(=N)N)NC1=O [C3, C16-CRKKKC-NH2] (Palmitoyl-CRKKKC-NH2; disulfide 1-6)
[1]
  SI (IC50 HaCaT/ IC50 HeLa): 0.9

## CCCCCCCCCCCCCCCC(=O)N[C@H]1CSSC[C@@H](C(N)=O)NC(=O)[C@H](CCCCN)NC(=O)[C@H](CCCCN)NC(=O)[C@H](CCCNC(=N)N)NC(=O)[C@H](CCCCN)NC1=O [C4, C16-CKRKKC-NH2] (Palmitoyl-CKRKKC-NH2; disulfide 1-6)
[2]
  SI = IC50HaCaT/MIC, C. albicans: 16.90
  SI = HC50/MIC, C. albicans: 61.20
[3]
  SI = IC50HaCaT/MIC, C. glabrata: 8.45
  SI = HC50/MIC, C. glabrata: 30.60
[4]
  SI = IC50HaCaT/MIC, C. lipolytica: 33.80
  SI = HC50/MIC, C. lipolytica: 122.40
[5]
  SI = IC50HaCaT/MIC, C. tropicalis: 16.90
  SI = HC50/MIC, C. tropicalis: 61.20
[6]
  SI = IC50HaCaT/MIC, E. coli: 1.06
  SI = HC50/MIC, E. coli: 3.83
[7]
  SI = IC50HaCaT/MIC, P. aeruginosa: 0.13
  SI = HC50/MIC, P. aeruginosa: 0.48
[8]
  SI = IC50HaCaT/MIC, S. epidermidis: 4.23
  SI = HC50/MIC, S. epidermidis: 15.30
[1]
  SI (IC50 HaCaT/ IC50 HeLa): 1.2

## CCCCCCCCCCCCCCCC(=O)N[C@H]1CSSC[C@@H](C(N)=O)NC(=O)[C@H](CCCCN)NC(=O)[C@H](CCCNC(=N)N)NC(=O)[C@H](CCCCN)NC(=O)[C@H](CCCCN)NC1=O [C5, C16-CKKRKC-NH2] (Palmitoyl-CKKRKC-NH2; disulfide 1-6)
[1]
  SI (IC50 HaCaT/ IC50 HeLa): 0.6

## CCCCCCCCCCCCCCCC(=O)N[C@H]1CSSC[C@@H](C(N)=O)NC(=O)[C@H](CCCNC(=N)N)NC(=O)[C@H](CCCCN)NC(=O)[C@H](CCCCN)NC(=O)[C@H](CCCCN)NC1=O [C6, C16-CKKKRC-NH2] (Palmitoyl-CKKKRC-NH2; disulfide 1-6)
[1]
  SI (IC50 HaCaT/ IC50 HeLa): 1.5

## CCCCCCCCCCCCCCCC(=O)N[C@H]1CSSC[C@@H](C(N)=O)NC(=O)[C@H](CCCCN)NC(=O)[C@H](CCCCN)NC(=O)[C@H](CCCNC(=N)N)NC(=O)[C@H](CCCNC(=N)N)NC1=O [C7, C16-CRRKKC-NH2] (Palmitoyl-CRRKKC-NH2; disulfide 1-6)
[1]
  SI (IC50 HaCaT/ IC50 HeLa): 1.0

## CCCCCCCCCCCCCCCC(=O)N[C@@H](CCCCN)C(=O)N[C@@H](CCCCN)C(=O)N[C@@H](CCCCN)C(N)=O [L1, C16-KKK-NH2]
[1]
  SI (IC50 HaCaT/ IC50 HeLa): 1.3

## CCCCCCCCCCCCCCCC(=O)N[C@@H](CCCCN)C(=O)N[C@@H](CCCCN)C(=O)N[C@@H](CCCCN)C(=O)N[C@@H](CCCCN)C(N)=O [L2, C16-KKKK-NH2] (Palmitoyl-KKKK-NH2)
[2]
  SI = IC50HaCaT/MIC, C. albicans: 0.73
  SI = HC50/MIC, C. albicans: 3.31
[3]
  SI = IC50HaCaT/MIC, C. glabrata: 0.37
  SI = HC50/MIC, C. glabrata: 1.65
[4]
  SI = IC50HaCaT/MIC, C. lipolytica: 2.94
  SI = HC50/MIC, C. lipolytica: 13.24
[5]
  SI = IC50HaCaT/MIC, C. tropicalis: 5.88
  SI = HC50/MIC, C. tropicalis: 26.48
[6]
  SI = IC50HaCaT/MIC, E. coli: 0.73
  SI = HC50/MIC, E. coli: 3.31
[7]
  SI = IC50HaCaT/MIC, P. aeruginosa: 1.47
  SI = HC50/MIC, P. aeruginosa: 6.62
[8]
  SI = IC50HaCaT/MIC, S. epidermidis: 2.94
  SI = HC50/MIC, S. epidermidis: 13.24
[1]
  SI (IC50 HaCaT/ IC50 HeLa): 1.8

## CCCCCCCCCCCCCCCC(=O)N[C@@H](CCCNC(=N)N)C(=O)N[C@@H](CCCCN)C(=O)N[C@@H](CCCCN)C(=O)N[C@@H](CCCCN)C(N)=O [L3, C16-RKKK-NH2] (Palmitoyl-RKKK-NH2)
[1]
  SI (IC50 HaCaT/ IC50 HeLa): 2.8

## CCCCCCCCCCCCCCCC(=O)N[C@@H](CCCCN)C(=O)N[C@@H](CCCNC(=N)N)C(=O)N[C@@H](CCCCN)C(=O)N[C@@H](CCCCN)C(N)=O [L4, C16-KRKK-NH2] (Palmitoyl-KRKK-NH2)
[2]
  SI = IC50HaCaT/MIC, C. albicans: 0.27
  SI = HC50/MIC, C. albicans: 4.99
[3]
  SI = IC50HaCaT/MIC, C. glabrata: 0.13
  SI = HC50/MIC, C. glabrata: 2.49
[4]
  SI = IC50HaCaT/MIC, C. lipolytica: 4.30
  SI = HC50/MIC, C. lipolytica: 79.80
[5]
  SI = IC50HaCaT/MIC, C. tropicalis: 2.15
  SI = HC50/MIC, C. tropicalis: 39.90
[6]
  SI = IC50HaCaT/MIC, E. coli: 0.54
  SI = HC50/MIC, E. coli: 9.98
[7]
  SI = IC50HaCaT/MIC, P. aeruginosa: 0.13
  SI = HC50/MIC, P. aeruginosa: 2.49
[8]
  SI = IC50HaCaT/MIC, S. epidermidis: 0.54
  SI = HC50/MIC, S. epidermidis: 9.98
[1]
  SI (IC50 HaCaT/ IC50 HeLa): 1.4

## CCCCCCCCCCCCCCCC(=O)N[C@@H](CCCCN)C(=O)N[C@@H](CCCCN)C(=O)N[C@@H](CCCNC(=N)N)C(=O)N[C@@H](CCCCN)C(N)=O [L5, C16-KKRK-NH2] (Palmitoyl-KKRK-NH2)
[1]
  SI (IC50 HaCaT/ IC50 HeLa): 0.4

## CCCCCCCCCCCCCCCC(=O)N[C@@H](CCCCN)C(=O)N[C@@H](CCCCN)C(=O)N[C@@H](CCCCN)C(=O)N[C@@H](CCCNC(=N)N)C(N)=O [L6, C16-KKKR-NH2] (Palmitoyl-KKKR-NH2)
[1]
  SI (IC50 HaCaT/ IC50 HeLa): 2.1

## CCCCCCCCCCCCCCCC(=O)N[C@@H](CCCNC(=N)N)C(=O)N[C@@H](CCCNC(=N)N)C(=O)N[C@@H](CCCCN)C(=O)N[C@@H](CCCCN)C(N)=O [L7, C16-RRKK-NH2] (Palmitoyl-RRKK-NH2)
[1]
  SI (IC50 HaCaT/ IC50 HeLa): 2.7
